Results are given in words; binding and its absence hold for the method and conditions named. In cells and extracts the contact can be indirect. A yes stands for co-enrichment or nearness to the bait. Other partners may have been found.
B1: Hsp70-binding protein 1 (protein, UniProt Q9NZL4 1-359)
chain: MSDEGSRGSRLPLALPPASQGCSSGGGGGGSSAGGSGNSRPPRNLQGLLQMAITAGSEEPDPPPEPMSEERRQWLQEAMSAAFRGQREEVEQMKSCLRVLSQPMPPTAGEAEQAADQQEREGALELLADLCENMDNAADFCQLSGMHLLVGRYLEAGAAGLRWRAAQLIGTCSQNVAAIQEQVLGLGALRKLLRLLDRDACDTVRVKALFAISCLVREQEAGLLQFLRLDGFSVLMRAMQQQVQKLKVKSAFLLQNLLVGHPEHKGTLCSMGMVQQLVALVRTEHSPFHEHVLGALCSLVTDFPQGVRECREPELGLEELLRHRCQLLQQHEEYQEELEFCEKLLQTCFSSPADDSMDR
B2: CASP4 (protein, UniProt P49662 1-377)
chain: MAEGNHRKKPLKVLESLGKDFLTGVLDNLVEQNVLNWKEEEKKKYYDAKTEDKVRVMADSMQEKQRMAGQMLLQTFFNIDQISPNKKAHPNMEAGPPESGESTDALKLCPHEEFLRLCKERAEEIYPIKERNNRTRLALIICNTEFDHLPPRNGADFDITGMKELLEGLDYSVDVEENLTARDMESALRAFATRPEHKSSDSTFLVLMSHGILEGICGTVHDEKKPDVLLYDTIFQIFNNRNCLSLKDKPKVIIVQACRGANRGELWVRDSPASLEVASSQSSENLEEDAVYKTHVEKDFIAFCSSTPHNVSWRDSTMGSIFITQLITCFQKYSWCCHLEEVFRKVQQSFETPRAKAQMPTIERLSMTRYFYLFPGN

Sequences of proteins named here, by UniProt entry; tags and fusion partners are left off.
UniProt O95817, whole entry: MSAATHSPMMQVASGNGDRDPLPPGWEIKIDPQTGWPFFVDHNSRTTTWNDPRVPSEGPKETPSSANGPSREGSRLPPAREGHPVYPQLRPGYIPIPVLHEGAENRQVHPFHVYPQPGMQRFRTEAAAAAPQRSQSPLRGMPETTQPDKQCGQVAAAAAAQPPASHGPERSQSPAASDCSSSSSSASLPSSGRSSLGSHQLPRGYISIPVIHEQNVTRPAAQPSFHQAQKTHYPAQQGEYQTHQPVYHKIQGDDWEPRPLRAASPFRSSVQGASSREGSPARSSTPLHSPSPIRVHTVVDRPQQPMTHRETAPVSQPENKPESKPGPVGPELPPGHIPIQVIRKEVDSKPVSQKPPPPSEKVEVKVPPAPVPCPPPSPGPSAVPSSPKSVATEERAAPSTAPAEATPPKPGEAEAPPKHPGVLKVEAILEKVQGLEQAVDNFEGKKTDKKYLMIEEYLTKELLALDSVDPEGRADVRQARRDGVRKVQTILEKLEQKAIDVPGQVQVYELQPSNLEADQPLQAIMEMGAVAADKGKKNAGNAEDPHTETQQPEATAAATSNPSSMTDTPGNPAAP

Each molecule was assayed against BioID-BAG3 (BAG cochaperone 3, Bcl-2-associated athanogene 3, fused to the BioID biotin ligase) (UniProt O95817) (assay: proximity labelling).
“heat shock 70 kDa protein 6 (from UniProt P17066 1-643)” was tested, and the binding was “binds”.
“NADH dehydrogenase 1 beta subcomplex subunit 3 (from UniProt O43676 1-98)” was tested, and the binding was “binds”.
CASP1 (from UniProt P29466 1-404) was tested, and the binding was “binds”.
For “NADH dehydrogenase 1 beta subcomplex subunit 6 (from UniProt O95139 1-128)”, the binding was “binds”.
With “Bcl-2-associated transcription factor 1 (from UniProt Q9NYF8 1-920)” the binding was “binds”.
With “complement component 1 Q subcomponent-binding protein, mitochondrial (from UniProt Q07021 74-282)” the binding was “binds”.
In the case of “NADH dehydrogenase flavoprotein 1, mitochondrial (from UniProt P49821 21-464)”, the binding is reported as “binds”.
For B1, the binding was “binds”.
With B2 the binding was “binds”.
